Consider one substance from article PMC9986639.

Results are given in words; binding and its absence hold for the method and conditions named. In cells and extracts the contact can be indirect. Binding calls can cover weak binding; strength is not graded here. Where a sequence is shown, tags or fusion partners need not be part of it.

In this assay the target is T1, TXN1-6×His (thioredoxin 1) (UniProt P10599).
T1 sequence: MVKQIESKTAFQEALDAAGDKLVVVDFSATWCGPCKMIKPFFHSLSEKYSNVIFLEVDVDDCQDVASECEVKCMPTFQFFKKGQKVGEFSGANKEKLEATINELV
The assay can be described thus: cross-linking; live HEK293T cells transfected with the His-tagged bait, 0.5 mM BVSB or PDES (1 h at 4°C and 2 h at RT, in PBS); lysis in 8 M urea, Ni-NTA, trypsin, SCX fractions; cross-linked peptides identified by LC-MS/MS (pLink2).

In the case of “β-tublin (human (endogenous in HEK293T))”, the binding result was “binds”.
